Laboratory results as given in doi:10.1101/2021.12.21.473710.
No constants are given. Whether binding was seen depends on the method and setting. In cells and extracts the contact can be indirect. Some entries that bind do so weakly or less than the wild type.

Sequences of proteins named here, by UniProt entry; tags and fusion partners are left off.
UniProt Q8S307: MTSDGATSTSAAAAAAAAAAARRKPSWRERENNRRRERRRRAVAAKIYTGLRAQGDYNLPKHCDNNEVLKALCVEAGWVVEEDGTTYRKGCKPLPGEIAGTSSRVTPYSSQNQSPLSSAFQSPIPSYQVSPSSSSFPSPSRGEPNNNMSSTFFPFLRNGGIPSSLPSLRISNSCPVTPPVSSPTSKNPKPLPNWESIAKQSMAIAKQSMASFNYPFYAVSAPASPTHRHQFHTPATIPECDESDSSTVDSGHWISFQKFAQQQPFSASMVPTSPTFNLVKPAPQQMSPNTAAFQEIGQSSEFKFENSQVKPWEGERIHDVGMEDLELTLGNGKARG
UniProt Q9LN63: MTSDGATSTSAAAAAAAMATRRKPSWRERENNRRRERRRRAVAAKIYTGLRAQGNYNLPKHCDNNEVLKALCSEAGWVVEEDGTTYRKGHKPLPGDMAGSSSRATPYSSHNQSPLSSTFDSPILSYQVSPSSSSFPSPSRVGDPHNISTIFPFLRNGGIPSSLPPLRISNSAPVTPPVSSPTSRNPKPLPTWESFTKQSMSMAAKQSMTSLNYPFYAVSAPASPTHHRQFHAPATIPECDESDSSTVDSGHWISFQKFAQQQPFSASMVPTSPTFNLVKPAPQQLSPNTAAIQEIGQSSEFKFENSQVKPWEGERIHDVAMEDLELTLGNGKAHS
UniProt Q9C518: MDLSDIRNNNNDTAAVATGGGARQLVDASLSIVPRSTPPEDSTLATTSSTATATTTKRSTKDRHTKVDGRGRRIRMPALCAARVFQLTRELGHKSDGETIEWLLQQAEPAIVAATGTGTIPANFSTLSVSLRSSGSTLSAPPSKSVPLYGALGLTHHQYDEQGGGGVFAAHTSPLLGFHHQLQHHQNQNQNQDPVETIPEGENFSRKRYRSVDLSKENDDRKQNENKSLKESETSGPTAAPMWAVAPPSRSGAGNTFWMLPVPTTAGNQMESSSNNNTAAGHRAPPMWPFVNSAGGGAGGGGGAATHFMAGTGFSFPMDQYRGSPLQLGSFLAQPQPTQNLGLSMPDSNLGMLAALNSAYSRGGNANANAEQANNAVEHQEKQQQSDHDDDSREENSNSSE

Assays:
[1] = target: GST-BZR1 (Arabidopsis thaliana) (UniProt Q8S307); assay: pull-down
[2] = target: GST-BZR2 (Arabidopsis thaliana) (UniProt Q9LN63); assay: pull-down
[3] = target: BZR1-nLUC (Arabidopsis thaliana) (UniProt Q8S307); assay: split reporter
[4] = target: BZR2-nLUC (Arabidopsis thaliana) (UniProt Q9LN63); assay: split reporter

| binding [1] | binding [2] | binding [3] | binding [4] | Substance |
| --- | --- | --- | --- | --- |
| binds | binds |  |  | HIS-T7-TCP8 (from UniProt Q9C518 1-401) |
|  |  | binds | binds | TCP8-cLUC (from UniProt Q9C518 1-401) |
